PubChem BioAssay AID1508597 | Cure First | 2020
Purpose: 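Survival screen with siRNA in ovarian cancer cells derived from patients, with or without rucaparib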 (primary screen). Cells: human ovarian carcinoma lines grown from tumours: OCI-P5x (papillary serous) and OCI-C5x (clear cell). Reagents: siRNA pool against human genes, 1.25 pmol siRNA per well. Timing: 72 h or 96 h, depending on the cell culture. Challenge: rucaparib 20 µM (about IC30) or vehicle, present until read-out. Measured: 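Luminescent ATP-based viability assay read 72 or 96 h after transfection, depending on culture, given as normalised percent viability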. Direction: viability, normalised: higher = more viable cells remaining. Rule for the call: 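Active when normalised viability falls below 80 percent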. Calls: active = viability under 80%; inactive = viability 80% or more.
Shown is one part, drawn at random, of about 2,100 reagents. 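Calls flag viability under 80% in either arm, not effects specific to rucaparib; the reference for percent is not stated.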 Entries without a mark were called inactive. Reagent sequences are not shown. Not given: the 100% reference.

gene symbol | rucaparib or vehicle | cell line | technical replicate | viability, normalised (%)
IRAK2 (interleukin 1 receptor associated kinase 2) | Rucaparib | OCI-C5x (clear cell) | 1 | 69.3 (active)
IRAK2 (interleukin 1 receptor associated kinase 2) | Rucaparib | OCI-C5x (clear cell) | 2 | 62.8 (active)
IRAK2 (interleukin 1 receptor associated kinase 2) | Rucaparib | OCI-C5x (clear cell) | 3 | 60.1 (active)
IRAK2 (interleukin 1 receptor associated kinase 2) | Rucaparib | OCI-P5x (serous) | 1 | 120
IRAK2 (interleukin 1 receptor associated kinase 2) | Rucaparib | OCI-P5x (serous) | 2 | 86.8
IRAK2 (interleukin 1 receptor associated kinase 2) | Rucaparib | OCI-P5x (serous) | 3 | 77 (active)
IRAK2 (interleukin 1 receptor associated kinase 2) | Vehicle | OCI-C5x (clear cell) | 1 | 81.4
IRAK2 (interleukin 1 receptor associated kinase 2) | Vehicle | OCI-C5x (clear cell) | 2 | 70.3 (active)
IRAK2 (interleukin 1 receptor associated kinase 2) | Vehicle | OCI-C5x (clear cell) | 3 | 66.8 (active)
IRAK2 (interleukin 1 receptor associated kinase 2) | Vehicle | OCI-P5x (serous) | 1 | 83.6
IRAK2 (interleukin 1 receptor associated kinase 2) | Vehicle | OCI-P5x (serous) | 2 | 70.8 (active)
IRAK2 (interleukin 1 receptor associated kinase 2) | Vehicle | OCI-P5x (serous) | 3 | 73.1 (active)

Ordered by “viability, normalised (%)” (descending): some entries from above.
gene symbol | rucaparib or vehicle | cell line | technical replicate | viability, normalised (%)
IRAK2 (interleukin 1 receptor associated kinase 2) | Rucaparib | OCI-C5x (clear cell) | 2 | 62.8 (active)
IRAK2 (interleukin 1 receptor associated kinase 2) | Rucaparib | OCI-C5x (clear cell) | 3 | 60.1 (active)

Continued.
gene symbol | rucaparib or vehicle | cell line | technical replicate | viability, normalised (%)
BRD7P3 (bromodomain containing 7 pseudogene 3) | Rucaparib | OCI-C5x (clear cell) | 1 | 63.6 (active)
BRD7P3 (bromodomain containing 7 pseudogene 3) | Rucaparib | OCI-C5x (clear cell) | 2 | 53.2 (active)
BRD7P3 (bromodomain containing 7 pseudogene 3) | Rucaparib | OCI-C5x (clear cell) | 3 | 33.1 (active)
BRD7P3 (bromodomain containing 7 pseudogene 3) | Rucaparib | OCI-P5x (serous) | 1 | 85.4
BRD7P3 (bromodomain containing 7 pseudogene 3) | Rucaparib | OCI-P5x (serous) | 2 | 107
BRD7P3 (bromodomain containing 7 pseudogene 3) | Rucaparib | OCI-P5x (serous) | 3 | 83.4
BRD7P3 (bromodomain containing 7 pseudogene 3) | Vehicle | OCI-C5x (clear cell) | 1 | 37.3 (active)
BRD7P3 (bromodomain containing 7 pseudogene 3) | Vehicle | OCI-C5x (clear cell) | 2 | 51.9 (active)
BRD7P3 (bromodomain containing 7 pseudogene 3) | Vehicle | OCI-C5x (clear cell) | 3 | 48.5 (active)
BRD7P3 (bromodomain containing 7 pseudogene 3) | Vehicle | OCI-P5x (serous) | 1 | 82.2
BRD7P3 (bromodomain containing 7 pseudogene 3) | Vehicle | OCI-P5x (serous) | 2 | 93.4
BRD7P3 (bromodomain containing 7 pseudogene 3) | Vehicle | OCI-P5x (serous) | 3 | 79.6 (active)
